Assay results from patent US9133139B2, “Fluoroalkyl-1,4-benzodiazepinone compounds” (BRISTOL-MYERS SQUIBB COMPANY, priority 2012, dated 2015).
Some of these results come from one statement about several compounds together.

Legend:
human Notch 3 = assay: Notch-CBF1 Transactivation Assay (luciferase reporter, transfected HeLa cells), Notch 3; assay type: cell-based; details: read-out: Notch 3 (IC50); HeLa cells transfected with truncated Notch 3 and CBF1 luciferase reporter, 18 hours incubation
Text: (§1) Notch-CBF1 Transactivation Assay
(§2) The Notch-CBF1 (C-promoter binding factor I) cell based transactivation assay is based on the ability of the released Notch intracellular domain fragments (NICDs) to function as transcription factors in conjunction with CBF1 and other nuclear factors. Luciferase assays were used to measure the antagonism of Notch-CBF1 transcriptional activity. HeLa cervical cancer cells are transiently co-transfected with pCDNA3.1/Hygro plasmids containing truncated Notch 1, Notch 2, Notch 3, or Notch 4 receptors and a PGL3 luciferase reporter vector containing 4 copies of CBF1 binding site. The cells were then tested for Notch-CBF1 activity in the absence or presence of test compounds. HeLa cells, maintained in DMEM (high glucose with HEPES), 1× glutamine/penicillin/streptomycin and 10% Fetal Bovine serum, were transiently transfected in a T175 Flask (4.5×10^6 cells/flask) using the Monster Transfection Kit (Minis #MIR2906) according to manufacturers specifications. Table 2 denotes respective DNA quantity for the transfections.
(§3) Assay media (5 μL) containing test compounds in final concentrations ranging from 5 μM to 8.4×10^−5 μM (3 fold serial dilutions) were added to the cells and the cell plates were then incubated for 18 hours at 37° C. and 5% CO2. Control wells contained DMSO vehicle (total counts) or 0.5 μM of an in-house small molecule inhibitor (background counts). Duplicates were used for each sample. Luciferase activity was measured after a 20-minute incubation with 50 μl STEADY-GLO® luciferase reagents according to manufacturer's specifications (Promega, Cat. #E2550) and analyzed by Envision plate reader (PerkinElmer, Boston, Mass.).
(§4) The antagonist effect of compounds was expressed as 100×[1−(average sample−average background)/(average total−average background)] where sample is the luciferase activity in the presence of test compound, background is equal to the luciferase activity in the presence of the small molecule inhibitor control and the total is signal induced in DMSO wells.

human Notch 1 = assay: Notch-CBF1 Transactivation Assay (luciferase reporter, transfected HeLa cells), Notch 1; assay type: cell-based; details: read-out: Notch 1 (IC50); HeLa cells transfected with truncated Notch 1 and CBF1 luciferase reporter, 18 hours incubation
Text: as §1, §2, §3, §4

[1] = Human metabolic stability half-life assay (liver microsomes); assay type: in vitro ADME; details: CYP-mediated
Experimental: Metabolic Stability Half-Life Panel
Result Interpretation Guideline
Incubation with Liver Microsomes
Sample Analysis—Instrumentation

Row | Structure (SMILES) | IC50 (human Notch 3) [nM] | IC50 (human Notch 1) [nM] | clearance in the human metabolic stability assay [1]
1 | Cc1cccc2c1NC(=O)[C@@H](NC(=O)[C@H](CCC(F)(F)F)[C@@H](C(N)=O)c1ccccc1)N=C2c1cccc(F)c1 [Example 5, (2R,3R)—N1-((S)-5-(3-Fluorophenyl)-9-methyl-2-oxo-2,3-dihydro-1H-benzo[e][1,4]diazepin-3-yl)-3-phenyl-2-(3,3,3-trifluoropropyl)succinamide] | ≤ 22.9 | – | –
2 | Cc1cccc2c1NC(=O)[C@@H](NC(=O)[C@H](CCC(F)(F)F)[C@@H](C(N)=O)c1conc1C)N=C2c1ccc(F)cc1 [Example 33, (2R,3R)—N1-((S)-5-(4-Fluorophenyl)-9-methyl-2-oxo-2,3-dihydro-1H-benzo[e][1,4]diazepin-3-yl)-3-(3-methylisoxazol-4-yl)-2-(3,3,3-trifluoropropyl)succinamide] | ≤ 22.9 | ≤ 24.2 | –
3 | Cc1nocc1[C@H](C(N)=O)[C@@H](CCC(F)(F)F)C(=O)N[C@H]1N=C(c2ccccc2)c2ccccc2N(c2ccc(Cl)cn2)C1=O [Example 23, (2R,3R)—N-((3S)-1-(5-Chloro-2-pyridinyl)-2-oxo-5-phenyl-2,3-dihydro-1H-1,4-benzodiazepin-3-yl)-3-(3-methyl-4-isoxazolyl)-2-(3,3,3-trifluoropropyl)succinamide] | ≤ 22.9 | ≤ 24.2 | –
4 | COc1ccc(N2C(=O)[C@@H](NC(=O)[C@H](CCC(F)(F)F)[C@@H](C(N)=O)c3ccccc3)N=C(c3ccccc3)c3ccccc32)nc1 [Example 15, (2R,3R)—N-((3S)-1-(5-Methoxy-2-pyridinyl)-2-oxo-5-phenyl-2,3-dihydro-1H-1,4-benzodiazepin-3-yl)-3-phenyl-2-(3,3,3-trifluoropropyl)succinamide] | – | ≤ 24.2 | –
5 | Cc1nocc1[C@H](C(N)=O)[C@@H](CCC(F)(F)F)C(=O)N[C@H]1N=C(c2ccccc2)c2ccccc2N(c2ccccn2)C1=O [Example 11, (2R,3R)-3-(3-Methyl-4-isoxazolyl)-N-((3S)-2-oxo-5-phenyl-1-(2-pyridinyl)-2,3-dihydro-1H-1,4-benzodiazepin-3-yl)-2-(3,3,3-trifluoropropyl)succinamide] | – | ≤ 24.2 | –
6 | C=CC[C@H](C(N)=O)[C@@H](CC(C)C)C(=O)N[C@H]1N=C(c2ccccc2)c2ccccc2N(CCC)C1=O [Comparative Compound 40, reference compound] | – | – | high clearance
7 | CCCC[C@H](C(N)=O)[C@@H](CC(C)C)C(=O)N[C@H]1N=C(c2ccc(Cl)cc2)c2ccccc2N(C)C1=O [Comparative Compound 39, reference compound] | – | – | high clearance
8 | NC(=O)[C@@H](c1ccccc1)[C@@H](CCC(F)(F)F)C(=O)N[C@H]1N=C(c2ccccc2)c2ccccc2N(c2ccc(Cl)cn2)C1=O [Example 22, (2R,3R)—N-((3S)-1-(5-Chloro-2-pyridinyl)-2-oxo-5-phenyl-2,3-dihydro-1H-1,4-benzodiazepin-3-yl)-3-phenyl-2-(3,3,3-trifluoropropyl)succinamide] | ≤ 22.9 | ≤ 24.2 | –
9 | COc1cc(C#N)cc2c1NC(=O)[C@@H](NC(=O)[C@H](CCC(F)(F)F)[C@@H](C(N)=O)c1ccccc1)N=C2c1ccccc1 [Example 25, (2R,3R)—N1-((S)-7-Cyano-9-methoxy-2-oxo-5-phenyl-2,3-dihydro-1H-benzo[e][1,4]diazepin-3-yl)-3-phenyl-2-(3,3,3-trifluoropropyl)succinamide] | ≤ 22.9 | ≤ 24.2 | –
10 | NC(=O)[C@@H](c1ccccc1)[C@@H](CCC(F)(F)F)C(=O)N[C@H]1N=C(c2ccccc2)c2ccccc2N(c2ccccn2)C1=O [Example 12, (2R,3R)—N-((3S)-2-Oxo-5-phenyl-1-(2-pyridinyl)-2,3-dihydro-1H-1,4-benzodiazepin-3-yl)-3-phenyl-2-(3,3,3-trifluoropropyl)succinamide] | – | ≤ 24.2 | –
11 | Cc1cccc2c1NC(=O)[C@@H](NC(=O)[C@H](CCC(F)(F)F)[C@@H](C(N)=O)c1ccccc1)N=C2c1ccc(F)cc1 [Example 27, (2R,3R)—N1-((S)-5-(4-Fluorophenyl)-9-methyl-2-oxo-2,3-dihydro-1H-benzo[e][1,4]diazepin-3-yl)-3-phenyl-2-(3,3,3-trifluoropropyl)succinamide] | – | ≤ 24.2 | –
12 | C=CC[C@H](C(N)=O)[C@@H](CC(C)C)C(=O)N[C@H]1N=C(c2ccccc2)c2cc(Cl)ccc2N(C)C1=O [Comparative Compound 38, reference compound] | – | – | high clearance
13 | CCC[C@H](C(N)=O)[C@@H](CC(C)C)C(=O)N[C@H]1N=C(c2ccccc2)c2ccccc2N(C)C1=O [Comparative Compound 37, reference compound] | – | – | high clearance
14 | COc1cccc(N2C(=O)[C@@H](NC(=O)[C@H](CCC(F)(F)F)[C@@H](C(N)=O)c3ccccc3)N=C(c3ccccc3)c3ccccc32)n1 [Example 16, (2R,3R)—N-((3S)-1-(6-Methoxy-2-pyridinyl)-2-oxo-5-phenyl-2,3-dihydro-1H-1,4-benzodiazepin-3-yl)-3-phenyl-2-(3,3,3-trifluoropropyl)succinamide] | – | ≤ 24.2 | –
15 | NC(=O)[C@@H](c1cccnc1)[C@@H](CCC(F)(F)F)C(=O)N[C@H]1N=C(c2ccccc2)c2ccccc2NC1=O [Example 10, (2R,3R)—N1-((S)-2-Oxo-5-phenyl-2,3-dihydro-1H-benzo[e][1,4]diazepin-3-yl)-3-(pyridin-3-yl)-2-(3,3,3-trifluoropropyl)succinamide] | ≤ 22.9 | ≤ 24.2 | –
